From paper PMC2362351
Results are given in words; binding and its absence hold for the method and conditions named. In cells and extracts the contact can be indirect. Some entries that bind do so weakly or less than the wild type.

Assays:
[1] = target: epidermal growth factor receptor (human (endogenous in HT29, Kato 3, HSC39, MKN7, MKN45, AGS)) (UniProt P00533); assay: co-IP; MKN7 cell extract, endogenous proteins; same procedure (Triton X-100 lysis, protein G sepharose, high stringency, high salt and low salt washes, Western blot)
[2] = target: epidermal growth factor receptor (human (endogenous in HT29, Kato 3, HSC39, MKN7, MKN45, AGS)) (UniProt P00533); assay: co-IP; Kato 3 cell extract, endogenous proteins; same procedure (Triton X-100 lysis, protein G sepharose, high stringency, high salt and low salt washes, Western blot)
[3] = target: epidermal growth factor receptor (human (endogenous in HT29, Kato 3, HSC39, MKN7, MKN45, AGS)) (UniProt P00533); assay: co-IP; HT29 cell extract (0.5% Triton X-100 buffer: 50 mM NaCl, 10 mM Pipes, MgCl2, 300 mM sucrose), endogenous proteins; precleared with mouse IgG; antibody on protein G sepharose 2 h at 4 C; washed with high stringency, high salt and low salt buffers; SDS-PAGE and Western blot
[4] = target: epidermal growth factor receptor (human (endogenous in HT29, Kato 3, HSC39, MKN7, MKN45, AGS)) (UniProt P00533); assay: co-IP; AGS cell extract, endogenous proteins; same procedure (Triton X-100 lysis, protein G sepharose, high stringency, high salt and low salt washes, Western blot)
[5] = target: epidermal growth factor receptor (human (endogenous in HT29, Kato 3, HSC39, MKN7, MKN45, AGS)) (UniProt P00533); assay: co-IP; MKN45 cell extract, endogenous proteins; same procedure (Triton X-100 lysis, protein G sepharose, high stringency, high salt and low salt washes, Western blot)

Measured: binding

beta-catenin (from UniProt P35222 1-781)
binds: all assays above

B1: gamma-catenin (protein, UniProt P14923 1-745)
chain: MEVMNLMEQPIKVTEWQQTYTYDSGIHSGANTCVPSVSSKGIMEEDEACGRQYTLKKTTTYTQGVPPSQGDLEYQMSTTARAKRVREAMCPGVSGEDSSLLLATQVEGQATNLQRLAEPSQLLKSAIVHLINYQDDAELATRALPELTKLLNDEDPVVVTKAAMIVNQLSKKEASRRALMGSPQLVAAVVRTMQNTSDLDTARCTTSILHNLSHHREGLLAIFKSGGIPALVRMLSSPVESVLFYAITTLHNLLLYQEGAKMAVRLADGLQKMVPLLNKNNPKFLAITTDCLQLLAYGNQESKLIILANGGPQALVQIMRNYSYEKLLWTTSRVLKVLSVCPSNKPAIVEAGGMQALGKHLTSNSPRLVQNCLWTLRNLSDVATKQEGLESVLKILVNQLSVDDVNVLTCATGTLSNLTCNNSKNKTLVTQNSGVEALIHAILRAGDKDDITEPAVCALRHLTSRHPEAEMAQNSVRLNYGIPAIVKLLNQPNQWPLVKATIGLIRNLALCPANHAPLQEAAVIPRLVQLLVKAHQDAQRHVAAGTQQPYTDGVRMEEIVEGCTGALHILARDPMNRMEIFRLNTIPLFVQLLYSSVENIQRVAAGVLCELAQDKEAADAIDAEGASAPLMELLHSRNEGTATYAAAVLFRISEDKNPDYRKRVSVELTNSLFKHDPAAWEAAQSMIPINEPYGDDMDATYRPMYSSDVPLDPLEMHMDMDGDYPIDTYSDGLRPPYPTADHMLA
binds: [3]
